Record: PubChem BioAssay AID1259425 (University of Nebraska Medical Center, 2018)

- Aim: 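Seek colon cancer weak points whose silencing resembles KSR1 loss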 (primary screen)
- Cell system: HCT116 human colon cancer cells
- Knock-down reagent: siRNA pool against human genes, 50 nM siRNA
- Measured: 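After 50 nM siRNA pool, branched-DNA assay measures six marker transcripts per well, minus blank, normalised to the geometric mean of two housekeeping transcripts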
- Direction: BNIP3L mRNA: higher = more BNIP3L transcript after knockdown; NDRG1 mRNA: higher = more NDRG1 transcript after knockdown
The deposit covers about 14,000 reagents; shown is a random part of them. Not all columns of the deposit are shown. Not given: the time to read-out.

Knock-down of ACTL6A (GeneID 86) resulted in: BNIP3L mRNA, set 1 = 0.142; NDRG1 mRNA, set 1 = 0.449.
EMCN (GeneID 51705) scored BNIP3L mRNA, set 1 = 0.146; NDRG1 mRNA, set 1 = 0.137.
With knock-down of PAX2 (GeneID 5076) the results were BNIP3L mRNA, set 1 = 0.121; NDRG1 mRNA, set 1 = 0.195.
With knock-down of PGLS (GeneID 25796), the screen gave BNIP3L mRNA, set 1 = 0.0945; NDRG1 mRNA, set 1 = 0.105.
For APPBP2 (GeneID 10513), the entry reads BNIP3L mRNA, set 1 = 0.0961; NDRG1 mRNA, set 1 = 0.165.
With knock-down of DRP2 (GeneID 1821) the results were BNIP3L mRNA, set 1 = 0.198; NDRG1 mRNA, set 1 = 0.132.
After knock-down of NELL2 (GeneID 4753) the results were BNIP3L mRNA, set 1 = 0.0785; NDRG1 mRNA, set 1 = 0.248.
Silencing of TMEM131L (GeneID 23240) resulted in: BNIP3L mRNA, set 1 = 0.107; NDRG1 mRNA, set 1 = 0.197.
MAP3K20 (GeneID 51776) showed BNIP3L mRNA, set 1 = 0.0875; NDRG1 mRNA, set 1 = 0.166.
SALL2 (GeneID 6297) showed BNIP3L mRNA, set 1 = 0.0372; NDRG1 mRNA, set 1 = 0.195.
For NUDT12 (GeneID 83594), the values are BNIP3L mRNA, set 1 = 0.102; NDRG1 mRNA, set 1 = 0.204.
Knock-down of CALM3 (GeneID 808) gave: BNIP3L mRNA, set 1 = 0.124; NDRG1 mRNA, set 1 = 0.416.
F2RL1 (GeneID 2150) scored BNIP3L mRNA, set 1 = 0.154; NDRG1 mRNA, set 1 = 0.226.
CNOT10 (GeneID 25904) gave BNIP3L mRNA, set 1 = 0.17; NDRG1 mRNA, set 1 = 0.332.
YKT6 (GeneID 10652) showed BNIP3L mRNA, set 1 = 0.0928; NDRG1 mRNA, set 1 = 0.438.
PDCD4 (GeneID 27250) scored BNIP3L mRNA, set 1 = 0.08; NDRG1 mRNA, set 1 = 0.135.
CDH11 (GeneID 1009) scored BNIP3L mRNA, set 1 = 0.089; NDRG1 mRNA, set 1 = 0.111.
With knock-down of ARFGEF2 (GeneID 10564), the screen gave BNIP3L mRNA, set 1 = 0.117; NDRG1 mRNA, set 1 = 0.133.
With knock-down of LRRTM4 (GeneID 80059) the results were BNIP3L mRNA, set 1 = 0.314; NDRG1 mRNA, set 1 = 0.195.
After knock-down of MRPL48 (GeneID 51642), the screen gave BNIP3L mRNA, set 1 = 0.0555; NDRG1 mRNA, set 1 = 0.209.
Silencing of RC3H2 (GeneID 54542) resulted in: BNIP3L mRNA, set 1 = 0.0765; NDRG1 mRNA, set 1 = 0.166.
After knock-down of COX7A2 (GeneID 1347), the record shows BNIP3L mRNA, set 1 = 0.147; NDRG1 mRNA, set 1 = 0.391.
PI4K2B (GeneID 55300) showed BNIP3L mRNA, set 1 = 0.0787; NDRG1 mRNA, set 1 = 0.244.
Against PIK3R3 (GeneID 8503), the values are BNIP3L mRNA, set 1 = 0.23; NDRG1 mRNA, set 1 = 0.215.
ARL1 (GeneID 400) gave BNIP3L mRNA, set 1 = 0.126; NDRG1 mRNA, set 1 = 0.55.
G3BP2 (GeneID 9908) scored BNIP3L mRNA, set 1 = 0.0828; NDRG1 mRNA, set 1 = 0.0391.
Knock-down of FAM135A (GeneID 57579) resulted in: BNIP3L mRNA, set 1 = 0.109; NDRG1 mRNA, set 1 = 0.21.
DRD5 (GeneID 1816) scored BNIP3L mRNA, set 1 = 0.142; NDRG1 mRNA, set 1 = 0.488.
